Test results as given in patent publication US12030888B2 (priority 2021, dated 2024).

Tests used:
B. subtilis (ATCC 6633) = test: Confocal fluorescence microscopy of TAMRA-himastatin localization; format: cell-based, Bacillus subtilis; details: 8 or 16 μg/mL, 30 min
[1] = general procedure: hybrid (solid and solution phase) peptide synthesis; 2-chlorotrityl chloride polystyrene resin (200-400 mesh), Fmoc-D-Thr(t-Bu) loaded, 0.802 mmol/g; HATU; details: for conjugation yield: conjugation step; for isolated mass / isolated yield: whole synthesis; for isolated mass: scale 0.187 mmol; for isolated yield: scale of the general procedure 0.400 mmol

CC(C)C[C@@H]1NC(=O)[C@H]2C[C@@H](O)CNN2C(=O)[C@H](C(C)C)OC(=O)[C@@H](C(C)C)NC(=O)[C@@H]2C[C@@]3(O)c4cc(-c5ccc6c(c5)[C@]5(O)C[C@H]7C(=O)N[C@H](C(C)C)C(=O)O[C@@H](C(C)C)C(=O)N8NC[C@H](O)C[C@@H]8C(=O)N[C@@H](CCCCNC(=O)c8ccc9c(c8)C(=O)OC98c9ccc(N(C)C)cc9Oc9cc(N(C)C)ccc98)C(=O)N[C@H]([C@H](C)O)C(=O)N7[C@@H]5N6)ccc4N[C@H]3N2C(=O)[C@@H]([C@H](C)O)NC1=O [(−)-25, TAMRA Himastatin Heterodimer]
cellular localization of fluorescent probe (B. subtilis (ATCC 6633)): intense septal staining | cellular localization of fluorescent probe (B. subtilis (ATCC 6633); listed as TAMRA-himastatin (−)-25): substantial accumulation in the bacterial envelope

TAMRA Himastatin Homodimer (−)-S17
conjugation yield [1]: 9%

hexapeptide S11
isolated mass [1]: 94.4 mg | isolated yield [1]: 38%

hexapeptide S5
isolated mass [1]: 94.4 mg | isolated yield [1]: 37.6%

Ent-Himastatin
conjugation yield [1]: 5%
